Experimental data as given in the supplement of paper PMC6143611.
Structures can show the parent of a compound that is named as a salt. ± gives the uncertainty stated by the source. This is one part of the list. Baselines shift from plate to plate; read single values as rough.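 Larvae carried a heat-shock-induced fluorescent stripe in rod outer segments, set at 6 dpf; the shedding distance runs from this stripe to the outer segment tip, measured in confocal stacks, about three fish per compound. The controls got 0.2% DMSO vehicle, and the paper flagged compounds with at least a 20% change against the same-week control and p < 0.001 (Dunnett test on mixed-effects models).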

system: Danio rerio larva rod photoreceptor outer segment; assay: rod outer segment growth distance Dg, difference from same-week DMSO control mean; higher = more outer segment growth; details: 20 µM; treatment time: 4 days (6-10 dpf)

| Structure (SMILES) | rod outer segment growth distance Dg [um] |
| --- | --- |
| O=C(O)C(=O)O.[NH-][C@@H]1CCCC[C@H]1[NH-].[Pt+2] [Oxaliplatin] | 0.33 ± 0.18 |
| CCCS(=O)(=O)Nc1ccc(F)c(C(=O)c2c[nH]c3ncc(-c4ccc(Cl)cc4)cc23)c1F [Vemurafenib (PLX4032, RG7204)] | -0.6 ± 0.24 |
| O=c1cc(N2CCOCC2)oc2c(-c3ccccc3)cccc12 | -1.85 ± 0.16 |
| O=C(c1ccccc1)c1ccc2n1CCC2C(=O)O (stereo not drawn) [Ketorolac] | -0.5 ± 0.25 |
| C[C@]12CC[C@@H]3c4ccc(O)cc4CC[C@H]3[C@@H]1C[C@@H](O)[C@@H]2O [Estriol] | 0.39 ± 0.24 |
| CN1C(C(=O)Nc2ccccn2)=C(O)c2ccccc2S1(=O)=O [Piroxicam] | 1.19 ± 0.3 |
| CC(C)(C)NC(=O)[C@H]1CC[C@H]2[C@@H]3CC[C@H]4NC(=O)C=C[C@]4(C)[C@H]3CC[C@]12C [Finasteride] | -0.5 ± 0.21 |
| Cc1nccn1CC1CCc2c(c3ccccc3n2C)C1=O (stereo not drawn) [Ondansetron HCl] | -1.23 ± 0.21 |
| C[C@@H]1CN(CC(=O)Nc2ccc3c(c2)Cc2cccc(-c4cc(=O)cc(N5CCOCC5)o4)c2S3)C[C@H](C)O1 | -0.13 ± 0.18 |
| C#Cc1cccc(Nc2ncnc3cc(OCCOC)c(OCCOC)cc23)c1 [Erlotinib HCl (OSI-744)] | 3.05 ± 0.2 |
| CC(C)OC(=O)C1=CN(C(=O)c2ccc(F)c(F)c2)CC(C)(C)c2c1[nH]c1ccccc21 | -0.21 ± 0.15 |
| Oc1ccc2ccccc2c1SSc1c(O)ccc2ccccc12 | -1.3 ± 0.16 |
| O=C1CC(=O)c2c(Cl)c(Cl)c(Cl)c(Cl)c21 | -0.56 ± 0.23 |
| Cc1c(C(=O)Nc2ccc(N3C[C@@H](C)O[C@@H](C)C3)nc2)cccc1-c1ccc(OC(F)(F)F)cc1 [LDE225 (NVP-LDE225,Erismodegib)] | -1.68 ± 0.62 |
| CCCN[C@H]1CCc2nc(N)sc2C1 [Pramipexole] | 0.66 ± 0.29 |
| Cc1noc(-c2ccc(CSCCC(=O)O)cc2)c1NC(=O)OC(C)c1ccccc1Cl (stereo not drawn) | 0.29 ± 0.17 |
| CCn1c(N)c(C(=O)NC)c(=O)c2ccc(C#CC(C)(O)COC)nc21 (stereo not drawn) | 0.44 ± 0.16 |
| CCCNC(C)C(=O)Nc1ccccc1C (stereo not drawn) [Prilocaine] | 0.32 ± 0.17 |
| C[C@@H]1C(=O)O[C@H]2C[C@@]34[C@H]5C[C@@H](C(C)(C)C)[C@]36[C@@H](OC(=O)[C@@H]6O)O[C@@]4(C(=O)O5)[C@]21O [Ginkgolide A] | -0.71 ± 0.24 |

| Structure (SMILES) | rod outer segment growth distance Dg [um] |
| --- | --- |
| COC(=O)c1ccc2c(C(=Nc3ccc(N(C)C(=O)CN4CCN(C)CC4)cc3)c3ccccc3)c(O)[nH]c2c1 [Nintedanib (BIBF 1120)] | -0.43 ± 0.29 |
| NC(=O)c1noc([C@H](CCCC2CCCCC2)CC(=O)NO)n1 | -0.15 ± 0.21 |
| COCCCOc1cc(C[C@@H](C[C@H](N)[C@@H](O)C[C@H](C(=O)NCC(C)(C)C(N)=O)C(C)C)C(C)C)ccc1OC [Aliskiren Hemifumarate] | 0.04 ± 0.3 |
| CCc1c2c(nc3ccc(OC(=O)N4CCC(N5CCCCC5)CC4)cc13)-c1cc3c(c(=O)n1C2)COC(=O)[C@]3(O)CC [Irinotecan HCl Trihydrate] | -0.09 ± 0.24 |
| Cc1cnc(Nc2ccc(OCCN3CCCC3)cc2)nc1Nc1cccc(S(=O)(=O)NC(C)(C)C)c1 | -1.2 ± 0.15 |
| OC(CC1c2ccccc2-c2cncn21)C1CCCCC1 (stereo not drawn) | -0.21 ± 0.22 |
| CC1(C)CC(=O)c2c(C(F)(F)F)nn(-c3ccc(C(N)=O)c(N[C@H]4CC[C@H](OC(=O)CN)CC4)c3)c2C1 | -0.36 ± 0.17 |
| CC[C@H]1OC(=O)[C@H](C)[C@@H](O[C@H]2C[C@@](C)(OC)[C@@H](O)[C@H](C)O2)[C@H](C)[C@@H](O[C@@H]2O[C@H](C)C[C@H](N(C)C)[C@H]2O)[C@](C)(O)C[C@@H](C)/C(=N\OCOCCOC)[C@H](C)[C@@H](O)[C@]1(C)O [Roxithromycin] | -0.48 ± 0.24 |
| C[C@H]1O[C@@H](Oc2c(-c3cc(O)c(O)c(O)c3)oc3cc(O)cc(O)c3c2=O)[C@@H](O)[C@@H](O)[C@@H]1O [Myricitrin] | 0.14 ± 0.29 |
| CNC[C@H](O)c1cccc(O)c1 [Phenylephrine HCl] | 0.15 ± 0.28 |
| NCCc1ccc(O)c(O)c1 [Dopamine HCl] | 0.26 ± 0.2 |
| COc1ccc2c(Oc3ccc(NC(=O)c4c(C)n(CC(C)(C)O)n(-c5ccccc5)c4=O)nc3)ccnc2c1 | -0.54 ± 0.14 |
| COc1ccc2[nH]c([S@@+]([O-])Cc3ncc(C)c(OC)c3C)nc2c1 [Esomeprazole Sodium] | -0.55 ± 0.29 |
| CCN(CC)Cc1ccc2cc(COC(=O)Nc3ccc(C(=O)NO)cc3)ccc2c1 [Givinostat (ITF2357)] | -0.55 ± 0.32 |
| CC(=O)O[C@@]12CO[C@@H]1C[C@H](O)[C@@]1(C)C(=O)[C@H](O)C3=C(C)[C@@H](OC(=O)[C@H](O)[C@@H](NC(=O)OC(C)(C)C)c4ccccc4)C[C@@](O)([C@@H](OC(=O)c4ccccc4)[C@H]21)C3(C)C [Docetaxel] | -0.61 ± 0.28 |
| CC(C)(F)C[C@H](N[C@@H](c1ccc(-c2ccc(S(C)(=O)=O)cc2)cc1)C(F)(F)F)C(=O)NC1(C#N)CC1 [Odanacatib (MK-0822)] | -0.17 ± 0.19 |
| CC(C)[C@@H](C)/C=C/[C@@H](C)[C@H]1CC[C@H]2C3=CC=C4C[C@@H](O)CC[C@]4(C)[C@H]3CC[C@]12C [Ergosterol] | 0.34 ± 0.34 |
| CC(C(=O)O)c1ccc(C(=O)c2cccs2)cc1 (stereo not drawn) [Suprofen] | -0.15 ± 0.21 |
| COC(c1ccccc1)(c1ccccc1)[C@H](Oc1nc(C)cc(C)n1)C(=O)O [Ambrisentan] | 0.98 ± 0.23 |

Taken from above.
Value for `COc1ccc2c(Oc3ccc(NC(=O)c4c(C)n(CC(C)(C)O)n(-c5ccccc5)c4=O)nc3)ccnc2c1` under rod outer segment growth distance Dg [um]: -0.54 ± 0.14
Value for `CC[C@H]1OC(=O)[C@H](C)[C@@H](O[C@H]2C[C@@](C)(OC)[C@@H](O)[C@H](C)O2)[C@H](C)[C@@H](O[C@@H]2O[C@H](C)C[C@H](N(C)C)[C@H]2O)[C@](C)(O)C[C@@H](C)/C(=N\OCOCCOC)[C@H](C)[C@@H](O)[C@]1(C)O` [Roxithromycin] under rod outer segment growth distance Dg [um]: -0.48 ± 0.24
